PubChem BioAssay AID743121 | NCATS | 2013

Aim: 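Genes whose silencing strengthens cell killing by camptothecin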 (primary screen)
Cell system: MDA-MB-231 cells, a human breast cancer line
Knock-down reagent: single siRNA against human genes, 20 nM siRNA (0.8 pmol per well)
Timing: 120 h (drug added 48 h after transfection, read 72 h later)
Conditions: camptothecin 20 nM (about EC30) for 72 h; vehicle 0.1% DMSO in parallel plates
Measured: 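CellTiter-Glo ATP signal, scaled to control siRNA as percent viability; sensitisation given as log2 of untreated divided by camptothecin-treated viability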
Direction: log2 vehicle/camptothecin viability: higher = stronger sensitisation to camptothecin; viability with camptothecin: higher = more viable cells
Call rule: 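Each gene scored by redundant siRNA activity (RSA) over its individual siRNA ratios; a gene is called active at p < 0.001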
In all, the deposit lists about 26,000 reagents; this is a part drawn at random. 167 of all reagents (0.63%) count as active. 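Calls are per gene from RSA p-values that are not deposited; an individual active-marked siRNA can sensitise only weakly.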 The numbers tell different reagents against one gene apart. Further read-outs or replicates are left out here.

target | reagent | log2 vehicle/camptothecin viability | viability with camptothecin (% of control) | Call
RFFL | 1 | -0.429 | 57.5 | inactive
RFFL | 2 | -0.296 | 81.6 | inactive
RFFL | 3 | 0.123 | 67.8 | inactive
RFFL | 4 | 0.347 | 27.7 | inactive
SGTA | 1 | -0.0971 | 90 | inactive
SGTA | 2 | -0.139 | 90.1 | inactive
SGTA | 3 | -0.0691 | 93 | inactive
SGTA | 4 | -0.249 | 43.6 | inactive
FBXW4 (F-box and WD repeat domain containing 4) | 1 | -0.345 | 74.7 | inactive
FBXW4 (F-box and WD repeat domain containing 4) | 2 | -0.381 | 94.6 | inactive
FBXW4 (F-box and WD repeat domain containing 4) | 3 | 0.891 | 32.6 | inactive
FBXW4 (F-box and WD repeat domain containing 4) | 4 | -0.067 | 43.4 | inactive
POLA1 (DNA polymerase alpha 1, catalytic subunit) | 1 | -0.73 | 23.3 | inactive
POLA1 (DNA polymerase alpha 1, catalytic subunit) | 2 | -0.847 | 19.6 | inactive
POLA1 (DNA polymerase alpha 1, catalytic subunit) | 3 | 0.216 | 28.1 | inactive
POLA1 (DNA polymerase alpha 1, catalytic subunit) | 4 | -0.843 | 72 | inactive
ADAM11 (ADAM metallopeptidase domain 11) | 1 | 0.047 | 83.3 | inactive
ADAM11 (ADAM metallopeptidase domain 11) | 2 | 0.604 | 20 | inactive
ADAM11 (ADAM metallopeptidase domain 11) | 3 | -0.159 | 58.6 | inactive
PTPN22 (protein tyrosine phosphatase non-receptor type 22) | 1 | 0.24 | 36.6 | inactive
PTPN22 (protein tyrosine phosphatase non-receptor type 22) | 2 | -0.135 | 105 | inactive
PTPN22 (protein tyrosine phosphatase non-receptor type 22) | 3 | -0.377 | 50.5 | inactive
PTPN22 (protein tyrosine phosphatase non-receptor type 22) | 4 | -0.282 | 64.8 | inactive
EPS8L1 (EPS8 signaling adaptor L1) | 1 | -0.107 | 110 | inactive
EPS8L1 (EPS8 signaling adaptor L1) | 2 | -0.156 | 90.5 | inactive
EPS8L1 (EPS8 signaling adaptor L1) | 3 | -0.554 | 53.8 | inactive
EPS8L1 (EPS8 signaling adaptor L1) | 4 | -0.29 | 77.5 | inactive
KLRG2 (killer cell lectin like receptor G2) | 1 | -0.0557 | 97.2 | inactive
KLRG2 (killer cell lectin like receptor G2) | 2 | -0.169 | 115 | inactive
KLRG2 (killer cell lectin like receptor G2) | 3 | -0.129 | 103 | inactive
KLRG2 (killer cell lectin like receptor G2) | 4 | -0.38 | 60.9 | inactive

Just “viability with camptothecin (% of control)” (3 entries from above):
SGTA #2 = 90.1
SGTA #3 = 93
SGTA #4 = 43.6
